Test results: the supplement of paper PMC10849652
This is one part of the list.

By UniProt entry, the sequences of proteins in these tests, tags left out. Where a name states a change or a piece, a line headed by the entry shows the natural chain unless it says otherwise.
UniProt Q9BYB4: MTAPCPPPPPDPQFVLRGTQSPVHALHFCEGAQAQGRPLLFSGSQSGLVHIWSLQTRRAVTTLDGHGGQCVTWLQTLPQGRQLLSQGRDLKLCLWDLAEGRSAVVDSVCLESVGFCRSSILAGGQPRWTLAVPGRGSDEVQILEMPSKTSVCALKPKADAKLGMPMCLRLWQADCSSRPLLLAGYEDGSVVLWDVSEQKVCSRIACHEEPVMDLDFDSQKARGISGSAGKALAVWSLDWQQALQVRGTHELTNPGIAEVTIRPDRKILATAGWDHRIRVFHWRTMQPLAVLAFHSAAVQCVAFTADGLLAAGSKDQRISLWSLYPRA
UniProt Q96EK6: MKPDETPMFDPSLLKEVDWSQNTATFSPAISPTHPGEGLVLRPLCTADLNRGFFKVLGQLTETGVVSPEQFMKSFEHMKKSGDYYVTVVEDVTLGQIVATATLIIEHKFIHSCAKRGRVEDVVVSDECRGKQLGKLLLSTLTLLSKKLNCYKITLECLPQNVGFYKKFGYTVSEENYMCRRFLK
UniProt O15228: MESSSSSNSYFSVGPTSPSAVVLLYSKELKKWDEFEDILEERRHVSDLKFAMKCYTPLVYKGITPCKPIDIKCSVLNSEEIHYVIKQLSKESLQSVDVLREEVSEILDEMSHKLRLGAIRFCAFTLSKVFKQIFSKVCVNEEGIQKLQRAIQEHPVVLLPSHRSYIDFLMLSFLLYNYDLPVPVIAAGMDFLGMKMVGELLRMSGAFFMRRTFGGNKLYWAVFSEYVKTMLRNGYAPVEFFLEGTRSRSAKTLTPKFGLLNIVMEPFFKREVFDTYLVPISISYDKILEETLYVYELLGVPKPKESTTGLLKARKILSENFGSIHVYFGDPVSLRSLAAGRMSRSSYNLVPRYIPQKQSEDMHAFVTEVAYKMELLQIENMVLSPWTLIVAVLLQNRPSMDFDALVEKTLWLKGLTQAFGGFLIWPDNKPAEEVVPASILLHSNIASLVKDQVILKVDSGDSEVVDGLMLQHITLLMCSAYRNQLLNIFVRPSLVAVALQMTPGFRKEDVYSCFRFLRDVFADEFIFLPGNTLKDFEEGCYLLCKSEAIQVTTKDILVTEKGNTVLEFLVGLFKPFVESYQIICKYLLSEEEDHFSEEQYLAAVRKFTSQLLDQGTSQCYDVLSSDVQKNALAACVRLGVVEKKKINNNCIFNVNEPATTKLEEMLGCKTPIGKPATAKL
UniProt P13224: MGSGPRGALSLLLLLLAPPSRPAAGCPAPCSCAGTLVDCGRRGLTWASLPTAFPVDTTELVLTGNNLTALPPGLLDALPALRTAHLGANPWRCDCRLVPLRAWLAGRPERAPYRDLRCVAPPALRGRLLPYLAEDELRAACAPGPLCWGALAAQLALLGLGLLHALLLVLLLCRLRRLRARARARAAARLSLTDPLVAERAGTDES
UniProt O94925: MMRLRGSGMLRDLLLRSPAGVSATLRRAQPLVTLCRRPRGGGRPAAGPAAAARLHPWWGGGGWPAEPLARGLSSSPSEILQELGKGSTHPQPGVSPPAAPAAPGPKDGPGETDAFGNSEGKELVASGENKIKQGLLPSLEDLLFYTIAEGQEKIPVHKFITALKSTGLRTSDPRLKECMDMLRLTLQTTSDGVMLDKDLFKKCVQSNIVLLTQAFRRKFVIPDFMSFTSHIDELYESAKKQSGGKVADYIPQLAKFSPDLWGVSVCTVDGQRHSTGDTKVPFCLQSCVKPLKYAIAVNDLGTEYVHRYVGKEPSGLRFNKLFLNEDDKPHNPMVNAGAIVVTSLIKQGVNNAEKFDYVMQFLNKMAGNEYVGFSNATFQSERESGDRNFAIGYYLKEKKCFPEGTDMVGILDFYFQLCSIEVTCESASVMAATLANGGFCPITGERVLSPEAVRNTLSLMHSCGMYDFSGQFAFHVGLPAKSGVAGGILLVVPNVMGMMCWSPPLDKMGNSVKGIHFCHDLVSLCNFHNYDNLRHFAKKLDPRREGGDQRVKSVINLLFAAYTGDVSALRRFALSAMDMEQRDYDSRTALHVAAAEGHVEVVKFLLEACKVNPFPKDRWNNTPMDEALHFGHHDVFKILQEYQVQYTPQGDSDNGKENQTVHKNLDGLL
UniProt Q9H3K2: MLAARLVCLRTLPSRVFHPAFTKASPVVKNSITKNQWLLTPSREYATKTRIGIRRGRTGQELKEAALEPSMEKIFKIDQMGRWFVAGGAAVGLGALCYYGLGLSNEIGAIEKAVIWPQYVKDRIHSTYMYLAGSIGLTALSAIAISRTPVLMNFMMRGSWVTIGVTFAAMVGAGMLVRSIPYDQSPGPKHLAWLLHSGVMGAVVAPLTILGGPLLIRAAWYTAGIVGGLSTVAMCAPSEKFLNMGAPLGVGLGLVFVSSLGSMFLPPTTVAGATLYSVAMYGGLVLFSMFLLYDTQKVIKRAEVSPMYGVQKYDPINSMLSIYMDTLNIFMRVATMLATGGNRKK
UniProt O75496: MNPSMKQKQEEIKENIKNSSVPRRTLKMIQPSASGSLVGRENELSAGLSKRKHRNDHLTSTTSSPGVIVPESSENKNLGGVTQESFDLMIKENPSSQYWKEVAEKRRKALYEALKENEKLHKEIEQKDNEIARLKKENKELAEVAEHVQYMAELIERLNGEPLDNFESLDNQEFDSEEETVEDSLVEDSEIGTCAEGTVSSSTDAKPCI
UniProt Q04760: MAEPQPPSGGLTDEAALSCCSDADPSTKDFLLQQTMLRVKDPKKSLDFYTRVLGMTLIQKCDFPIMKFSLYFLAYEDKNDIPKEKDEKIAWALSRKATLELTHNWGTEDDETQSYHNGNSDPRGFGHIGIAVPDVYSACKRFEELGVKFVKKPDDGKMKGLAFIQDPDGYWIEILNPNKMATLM
UniProt P36915, whole entry, looked up: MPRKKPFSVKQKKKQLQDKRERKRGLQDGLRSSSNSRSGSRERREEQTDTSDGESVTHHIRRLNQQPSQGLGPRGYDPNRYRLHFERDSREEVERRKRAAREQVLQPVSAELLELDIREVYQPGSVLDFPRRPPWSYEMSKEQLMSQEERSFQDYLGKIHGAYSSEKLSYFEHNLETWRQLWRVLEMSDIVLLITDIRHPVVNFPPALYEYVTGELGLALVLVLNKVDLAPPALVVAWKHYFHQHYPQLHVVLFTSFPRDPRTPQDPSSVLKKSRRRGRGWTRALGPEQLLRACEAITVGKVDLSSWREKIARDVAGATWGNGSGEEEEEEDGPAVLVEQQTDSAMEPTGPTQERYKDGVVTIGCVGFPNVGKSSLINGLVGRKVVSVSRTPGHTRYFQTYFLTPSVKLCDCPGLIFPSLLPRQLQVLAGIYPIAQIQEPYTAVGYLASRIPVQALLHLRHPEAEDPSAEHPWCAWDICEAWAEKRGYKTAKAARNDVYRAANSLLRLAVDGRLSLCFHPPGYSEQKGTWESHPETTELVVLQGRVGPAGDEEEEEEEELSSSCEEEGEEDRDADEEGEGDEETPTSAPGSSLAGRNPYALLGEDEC

How the values were obtained:
Assay in all cases: log2 fold change, soluble protein after heating vs DMSO (PISA); higher = thermal stabilisation; K562 lysate, 10 uM; active = over 0.2 and 3.5 SD of the protein, either way, in both replicates (recomputed)
[1] = compound: C1=CC=C(C=C1)[C@H](COC2=CC3=C(C=C2)NC(=O)N3)NC(=O)C4=CC=CN(C4=O)CC5=CC(=C(C=C5)F)F
Outline: (§1)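 A 30 min treatment with 10 μM compound was applied to crude K562 extract at 1 mg/mL protein in PBS pH 7.4 with 1 mM MgCl2. Heating for 3 min spanned 48°C-58°C, after which aliquots were pooled, adjusted to 0.5% NP-40 at 4°C and spun at 21,000xg for 90 min. TMTpro 16plex LC-MS/MS of the supernatant, with channel sums equalised, gave values recorded as log-two fold change in thermal stability against solvent controls, from duplicates.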

[2] = compound: CC1=C(SC2=C1C(=N[C@H](C3=NN=C(N32)C)CC(=O)N)C4=CC=C(C=C4)Cl)C
Outline: as §1

[3] = compound: CC1=C2C(=CC=C1)N=C(N(C2=O)C3=CC=CC=C3C)CN4C=NC5=C(N=CN=C54)N
Outline: as §1

[4] = compound: Cc1sc2c(c1C)C(c1ccc(Cl)cc1)=N[C@@H](CC(=O)OC(C)(C)C)c1nnc(C)n1-2
Outline: as §1

[5] = compound: c1ccc([C@@H]2C[C@H]2NC2CCNCC2)cc1
Outline: as §1

Measured: log2 fold change

GNB1L (UniProt Q9BYB4)
inactive: [1] 0.019 | [2] 0.002 | [3] -0.023 | [4] 0.004 | [5] -0.037

GNPNAT1 (UniProt Q96EK6)
inactive: [1] 0.022 | [2] -0.039 | [3] -0.046 | [4] -0.029 | [5] -0.265

GNPAT (UniProt O15228)
inactive: [1] -0.044 | [2] 0.009 | [3] 0.001 | [4] -0.009 | [5] -0.046

GP1BB isoform 2 (UniProt P13224)
inactive: [1] -0.032 | [2] 0.007 | [3] 0.08 | [4] -0.052 | [5] 0.023

GLS isoform 3 (UniProt O94925)
inactive: [1] 0 | [2] -0.053 | [3] -0.011 | [4] -0.045 | [5] 0.046

GHITM (UniProt Q9H3K2)
inactive: [1] 0.024 | [2] -0.014 | [3] 0.009 | [4] -0.001 | [5] -0.021

GMNN (UniProt O75496)
inactive: [1] -0.016 | [2] -0.008 | [3] -0.008 | [4] -0.012 | [5] -0.025

GLO1 (UniProt Q04760)
inactive: [1] 0.019 | [2] -0.006 | [3] -0.023 | [4] -0.058 | [5] -0.035

GNL1 (UniProt P36915)
inactive: [1] -0.026 | [2] 0.022 | [3] 0.041 | [4] -0.024 | [5] 0.063
